From PubChem BioAssay AID743255 (National Center for Advancing Translational Sciences (NCATS), 2014)
The campaign covered roughly 390,000 compounds. About 910 (0.23%) were called active. This list was built around the results that the source calls inconclusive (neither active nor inactive); the mix of calls is not that of the screen. The call rests on the fitted dose curve; in most records, active means well fitted inhibition curve with a large enough effect; inconclusive means small, poorly fitted or top-dose-only effect; inactive means no such curve, though single readings can be large or run the other way. Potencies of inconclusive entries are doubtful fits and often do not repeat.

Chains of the proteins cited; added tags and fusions are not shown. Lines headed by an entry give the natural chain unless they say otherwise; changes in a name come on top.
UniProt O94782: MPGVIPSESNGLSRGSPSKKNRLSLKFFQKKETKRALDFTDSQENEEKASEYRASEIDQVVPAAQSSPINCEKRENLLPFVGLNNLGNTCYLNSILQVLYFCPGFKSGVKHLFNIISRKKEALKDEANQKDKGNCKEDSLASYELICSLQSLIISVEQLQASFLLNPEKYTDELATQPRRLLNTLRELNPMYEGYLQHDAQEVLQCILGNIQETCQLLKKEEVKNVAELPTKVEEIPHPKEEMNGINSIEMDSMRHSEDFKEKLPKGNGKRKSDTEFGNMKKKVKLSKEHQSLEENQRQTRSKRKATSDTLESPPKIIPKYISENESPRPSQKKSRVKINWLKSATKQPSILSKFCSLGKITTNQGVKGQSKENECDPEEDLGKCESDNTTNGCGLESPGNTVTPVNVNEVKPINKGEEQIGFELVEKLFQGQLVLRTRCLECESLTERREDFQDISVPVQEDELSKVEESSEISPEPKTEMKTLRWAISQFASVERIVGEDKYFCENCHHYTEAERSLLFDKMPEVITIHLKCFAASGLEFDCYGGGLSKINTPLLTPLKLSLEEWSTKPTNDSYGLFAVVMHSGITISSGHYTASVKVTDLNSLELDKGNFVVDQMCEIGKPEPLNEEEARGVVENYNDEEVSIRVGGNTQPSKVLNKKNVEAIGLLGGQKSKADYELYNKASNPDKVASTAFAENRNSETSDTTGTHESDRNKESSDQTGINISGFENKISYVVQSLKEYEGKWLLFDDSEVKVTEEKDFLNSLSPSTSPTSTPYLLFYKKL

These molecules were tested against Ubiquitin carboxyl-terminal hydrolase 1 (Homo sapiens) (UniProt O94782) (assay: Inhibitors of USP1/UAF1: Primary Screen). Conditions: recombinant USP1/UAF1, Ub-Rhodamine cleavage fluorescence; series mostly up to 57.1 µM.
How it was run: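 1 nM enzyme complex + cpd, 15 min RT; start with Ub-Rho 150nM final; kinetic fluorescence ex 480/em 540, 6 reads q60 s. Buffer 50mM HEPES pH 7.8, 0.5mM EDTA, 0.1 mg/ml BSA, 1mM TCEP, 0.01% Tween-20.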
Further: nearly all actives have a fitted effect of over 60% in size.
Potency means the concentration at half of the fitted maximal effect.

Potency, inactive:
O=C(CCCn1c(SCC(=O)NCC2CCCO2)nc2ccccc2c1=O)NCc1ccccc1 (stereo not given), CCOC(=O)c1ccc(NC(=O)CCc2nc(-c3ccc(Cl)cc3)no2)cc1, O=C(Cn1nc(C(F)(F)F)c2c1CCCC2)Nc1ccc(F)c(Cl)c1, COc1cc(-c2nc3cnccn3c2Nc2ccc3c(c2)OCCO3)ccc1O, O=C1NN=C(c2ccccc2)C1Cc1ccccc1 (stereo not given), O=C(NCc1ccccn1)c1cc(-c2ccncc2)nc2ccccc12, O=C(O)c1ccc(Sc2nnc3ccccn23)c([N+](=O)[O-])c1, Cc1cc(=O)oc2cc(OCC(=O)N3CCOCC3)ccc12, O=C(Nc1ccc(Cl)c(C(F)(F)F)c1)NC1CC2CCCC(C1)N2Cc1ccccc1 (stereo not given), CCCCCCc1cc2cc(-c3nnc(-c4cc(OC)c(OC)c(OC)c4)o3)c(=O)oc2cc1O, CC(C)c1nccn1S(=O)(=O)c1cc(Cl)ccc1Cl, COc1ccc(C=O)cc1CSc1ccccn1, CC1(C)CC(=O)C=C(NNC(=O)c2ccccc2)C1, Oc1ccccc1C1Nc2cccc3cccc(c23)N1, COc1ccc(-n2cc(CNCCc3cscn3)c(-c3ccccc3Cl)n2)cc1, COCCSc1ccccc1C(=O)NCc1ccc(S(N)(=O)=O)cc1, O=C(c1ccco1)N1N=C(c2ccc(Cl)cc2)CC1c1ccco1 (stereo not given), CC1CN(C)C(C)C/C1=N\Oc1ccc([N+](=O)[O-])cc1 (stereo not given), O=C(NC(=S)Nc1nc(-c2ccccc2)cs1)c1cccnc1, CCCCCCCCCc1nc2sc3c(c2c(=O)n1NC(=O)c1ccc([N+](=O)[O-])cc1)CC(C)(C)OC3

Potency, active:
Oc1ccc(N=Cc2ccc(-c3cccs3)s2)cc1 12.6 µM

Potency, inconclusive:
COc1ccc(OC)c(-c2cc(C(=O)N3CCN(c4ncccn4)CC3)c3ccccc3n2)c1 17.8 µM [inhibitor, partial curve], NC(=O)CC(NC(=O)c1ccccc1)c1ccc(NCC2CC2)c([N+](=O)[O-])c1 (stereo not given) 3.98 µM [inhibitor, full curve, poor fit], O=C(CCN1C(=O)/C(=C/c2ccco2)SC1=S)Nc1ccc(C(=O)O)c(O)c1 50.1 µM [inhibitor, partial curve, poor fit], Cc1ccc(-n2c(=S)[nH]c3sc4c(c3c2=O)CCC4)cc1 50.1 µM [inhibitor, single point], COC(=O)CCCCCCCCC(O)CN(C)C (stereo not given) 15.8 µM [inhibitor, partial curve, poor fit], C=CCn1c(=S)[nH]c2cc(C(=O)Nc3ccc(OC)c(OC)c3)ccc2c1=O 50.1 µM [inhibitor, partial curve, poor fit], CCC1CCCCN1C(=O)CSc1n[nH]c(N)n1 (stereo not given) 44.7 µM [inhibitor, single point], CC(C)OCCCNc1nc2c(cnn2C)c(=O)[nH]1 7.08 µM [inhibitor, full curve, poor fit], CC(=O)N/N=C(\C)c1cccc(C(F)(F)F)c1 35.5 µM [inhibitor, single point], CCC(NC(=O)C1CCCO1)c1ccccc1 (stereo not given) 0.0079 µM [inhibitor, full curve, poor fit], O=C(Nc1ccc2oc(-c3cccc4c(Br)cccc34)nc2c1)c1ccc(F)cc1 0.708 µM [inhibitor, full curve, poor fit], COc1ccc(-c2onc(C)c2-c2cscn2)c(O)c1 50.1 µM [inhibitor, partial curve, poor fit], COC(=O)C1=NN(C(=O)c2ccc(Cl)cc2)C(O)(c2ccccc2)C1 (stereo not given) 0.794 µM [inhibitor, full curve, poor fit], CCCCN(C)CCNC(=O)c1ccc2c(=O)n(CCc3ccccc3)c(=O)[nH]c2c1 0.282 µM [inhibitor, full curve, poor fit], CCCCCCCCCCCCN1[C@@H](CC(=O)OC)c2cc(F)cc(F)c2S1(=O)=O 35.5 µM [inhibitor, partial curve], O=C(COC(=O)c1cc(-c2cccs2)nc2ccccc12)c1ccccc1 0.0447 µM [inhibitor, full curve, poor fit], Fc1ccc(NCc2cccn2-c2nnc(N3CCOCC3)s2)cc1 39.8 µM [inhibitor, partial curve, poor fit], Cc1cccc(COCC(Cc2ccccc2)N2CCN(C(=O)c3ccc(C(F)(F)F)cc3)CCC2=O)c1 (stereo not given) 14.1 µM [inhibitor, partial curve, poor fit], COc1cccc(C2CC(=O)Nc3cc4c(cc32)OCCO4)c1OC (stereo not given) 10 µM [inhibitor, full curve, poor fit], Cc1cccc(NC(=S)NCc2cccs2)c1 15.8 µM [inhibitor, partial curve], Cc1ccc(CNC(=O)c2cc3c(=O)n(C)c4ccccc4c3n2C)o1 44.7 µM [inhibitor, partial curve, poor fit], COc1ccccc1CNCC(=O)Nc1ccc(N2CCOCC2)cc1 5.62 µM [inhibitor, partial curve], CCCCCC(=O)N1C[C@H](O)[C@@H](n2cc(COC(=O)c3ccccc3)nn2)C[C@@H]1c1ccc(C)cc1 12.6 µM [inhibitor, partial curve], c1ccc(C2=Nc3cccc4cccc(c34)N2)cc1 35.5 µM [inhibitor, partial curve], Cc1onc(-c2ccccc2)c1C(=O)NNC(=S)NC(=O)c1ccc2c(c1)OCO2 3.16 µM [inhibitor, full curve, poor fit], COc1ccc(C)cc1NC(=O)CN(Cc1nnc(-c2ccc(Cl)cc2)o1)C1CCCC1 44.7 µM [inhibitor, partial curve, poor fit], Oc1ccc2ccccc2c1C=Nc1ccc(N2CCOCC2)cc1 31.6 µM [inhibitor, single point], C#CCOCCOCCOCCNc1nc(N2CCN(C(=O)CCCCCCCCCCNC(=O)[C@H](CCCCN)n3cc(C[C@@H](C)CC)nn3)CC2)nc(N2CCN(C(=O)CCCCCCCCCCNC(=O)[C@@H]([C@H](C)O)n3cc(C)nn3)CC2)n1 56.2 µM [inhibitor, partial curve, poor fit], COc1ccc(CCNC(=O)Cn2cc(C(=O)c3ccccc3)c(=O)c3ccc(C)nc32)cc1OC 39.8 µM [inhibitor, partial curve, poor fit], COC/C=C/C1=CC2=CC(=O)C(C)(OC(=O)c3cnc4ccccc4n3)C(=O)C2=CN1CCOC (stereo not given) 44.7 µM [inhibitor, partial curve, poor fit], Cc1nc2ccccn2c1-c1csc(Nc2ccc(C(=O)O)cc2)n1 25.1 µM [inhibitor, partial curve], CCCCOc1ccc(CNC(=O)CN2CCSc3ccccc32)cc1 35.5 µM [inhibitor, partial curve], CCCc1cc2c(=O)c(-c3nc4ccccc4s3)c(COCC(=O)O)oc2cc1O 79.4 µM [inhibitor, partial curve, poor fit], Cc1ccccc1C(=O)Nc1ccccc1C(=O)OCc1cc(=O)n2ccsc2n1 3.98 µM [inhibitor, partial curve], Cc1cccc(NC(=O)C2CCN(C(=O)c3ccc(F)cc3)CC2)n1 8.91 µM [inhibitor, full curve], CCOc1ccc(OCC)c(Nc2nc3ccccc3c3nnc(C)n23)c1 14.1 µM [inhibitor, partial curve, poor fit], CCc1cccc(C)c1NC(=O)CN(C)C1=NS(=O)(=O)c2ccccc21 15.8 µM [inhibitor, partial curve], O=S(=O)(c1ccccc1)[C@@]1(c2ccccc2)C[C@@H]2ON=C(c3cccc(-c4ccccc4)c3)[C@@H]2C1 3.55 µM [inhibitor, full curve, poor fit], COC1=Cc2c(ccc3ccc(=O)oc23)OC1(C)C 44.7 µM [inhibitor, partial curve, poor fit], COc1ccc(-n2c(=S)[nH]c3cc(C(=O)N4CCN(c5ccccc5)CC4)ccc3c2=O)c(OC)c1 3.98 µM [inhibitor, partial curve], COc1ccc(-c2nc3c(c(SCC(=O)Nc4ccc(C(=O)O)cc4)n2)Cc2ccccc2O3)cc1 4.47 µM [inhibitor, partial curve, poor fit], COc1cccc(N2CC(O)=C(c3nc4ccccc4c(=O)[nH]3)C2=N)c1 0.316 µM [inhibitor, full curve, poor fit], O=C(CCCCCn1c(=O)c2sccc2n(CC(=O)Nc2cccc(Cl)c2)c1=O)NCc1ccc2c(c1)OCO2 0.631 µM [inhibitor, full curve, poor fit], Cc1nc(N2CCOCC2)c2c(C(=O)NCc3cccc(Cl)c3)c(C)oc2n1 4.47 µM [inhibitor, single point]
